Test results as given in the supplement of paper PMC12819154, “High-throughput peptide-centric local stability assay extends protein–ligand identification to membrane proteins, tissues and bacteria” (Nature Structural & Molecular Biology, 2025).
This is one part of the list. Most values lie at the level of the controls, where differences are scatter.

Target: HSP90AA2P (UniProt Q14568)
Test: log2 fold change of tryptic peptide abundance, ligand vs vehicle (limited proteolysis) (log2 ratio); higher = more trypsin-susceptible (destabilized)
Conditions: peptide sequence: NLTNDWEDHLAVK; peptide start residue: 314; ligand concentration: 5 uM; sample: K562 cleared lysate

Compound: Cc1nc(Nc2ncc(C(=O)Nc3c(C)cccc3Cl)s2)cc(N2CCN(CCO)CC2)n1 [dasatinib]
- log2 fold change: -0.383
